Results: PMC12040169 (PLOS Biology, 2025)
Some of the results follow.

Each compound was assayed on T1, CTL2-GFP (C. trachomatis L2/434/Bu, GFP-expressing). Details: bulk GFP, single well; 28.5 h, 10 µM; inhibitor.
T1 construct: L2/434/Bu, GFP-expressing
Design: species or system HeLa; Intracellular C. trachomatis growth in HeLa cells, bulk GFP fluorescence relative to DMSO

Compound | % of control remaining
CN(C(=O)CN1CCN(c2cc(-c3cc(C(F)(F)F)cc(C(F)(F)F)c3)ncn2)CC1)c1ccccc1 [CBK091125] | 171.2%
CCOC(=O)CSc1nc2ccccc2c(=O)n1Cc1ccccc1 [CBK054124] | 110.349%
Cc1cc(C(F)(F)F)nn1CCCNC(=O)c1cc(-c2ccccc2)nc2ccccc12 [CBK267755] | 122.839%
Cc1[nH]c(=O)[nH]c(=O)c1S(=O)(=O)N1CCOCC1 [CBK261060] | 92.7119%
CCCC/C=C/c1nccnc1NCCCO [CBK038006] | 162.926%
Cc1cccc(-c2noc(CCC(=O)NCC3CCCO3)n2)c1 (stereo not drawn) [CBK268241] | 83.8644%
O=C(NCc1ccccc1)c1ccncc1 [CBK200189] | 109.326%
COc1ccc(-c2cc([C@H]3CN4CC[C@H]3C[C@@H]4CNC(=O)c3ccco3)n(C)n2)cc1 [CBK289099] | 126.444%
Cc1ccc2c(c1C)NC(=O)CC2c1ccc(F)cc1 (stereo not drawn) [CBK288221] | 140.84%
CCC(C)(C)c1ccc(S(=O)(=O)NCCCN2CCCC2)cc1 [CBK044126] | 103.26%
COc1cccc2cc(C(=O)C3=C(O)C(=O)N(CCN4CCOCC4)C3c3ccc(F)cc3)oc12 (stereo not drawn) [CBK266414] | 174.038%
Cc1cc2nn(-c3ccccc3)nc2cc1NC(=O)c1ccc(-c2cccc([N+](=O)[O-])c2)o1 [CBK263859] | 100%
O=C(CN1CCCC2(CCN(C(=O)Cc3c[nH]c4ccccc34)C2)C1)c1ccsc1 (stereo not drawn) [CBK132053] | 127.437%
COc1ccc([C@@]23CC[C@@H](NC(=O)Nc4ccccc4C(F)(F)F)C[C@@H]2N(C)CC3)cc1OC [CBK036466T] | 111.855%
CC1CN(Cc2ccccc2)CCN1c1cnccn1 (stereo not drawn) [CBK013684] | 121.084%
Cc1ccc(C)c(NC(=O)CSc2nnc(CCc3ccccc3)n2C)c1 [CBK266365] | 105.128%
COc1ccc(-c2cnc3[nH]c(=O)n(Cc4ccccc4)c3n2)cc1 [CBK064210] | 179.314%
CC(NC(=O)Cn1cnc2ccccc21)c1ccccn1 (stereo not drawn) [CBK281884] | 97.3752%
CCCc1cc(C(=O)NC(c2ccccc2)c2cccnc2)[nH]n1 (stereo not drawn) [CBK282462] | 129.091%
O=C1CCCN1c1ccc(CN2CCN(C3CCCC3)C(=O)C2)cc1 [CBK281908] | 149.562%
O=C(COC(=O)c1cc(S(=O)(=O)N2CCCCC2)c(Cl)cc1Cl)c1ccccc1 [CBK261668] | 96.5619%

A second format for 4 compounds above:
Compound	% of control remaining
Cc1[nH]c(=O)[nH]c(=O)c1S(=O)(=O)N1CCOCC1 [CBK261060]	92.7119%
COc1ccc(-c2cc([C@H]3CN4CC[C@H]3C[C@@H]4CNC(=O)c3ccco3)n(C)n2)cc1 [CBK289099]	126.444%
COc1ccc([C@@]23CC[C@@H](NC(=O)Nc4ccccc4C(F)(F)F)C[C@@H]2N(C)CC3)cc1OC [CBK036466T]	111.855%
COc1ccc(-c2cnc3[nH]c(=O)n(Cc4ccccc4)c3n2)cc1 [CBK064210]	179.314%
